Source: PubChem BioAssay AID540256 (National Center for Advancing Translational Sciences (NCATS), 2011)
The whole screen tested about 300,000 compounds, of which about 3,700 (1.2%) were called active. The inconclusive results got no clear call from the source; some entries with a clear call stand among them for comparison. Calls follow the shape of the full dose curve; tested in HEK293 cells. Where the call is inconclusive, the potency comes from a doubtful curve fit.

experiment: qHTS for Inhibitors of binding or entry into cells for Lassa Virus; conditions: Lassa virus pseudotype entry inhibition, cell reporter; series mostly up to 37.9 µM; also: nearly all actives have a fitted effect of over 50% in size
Potency is read from the fitted curve at half-maximal effect.

Compound	Potency
O=C(NCCN1CCN(c2cccc(Cl)c2)CC1)c1ccc(CSc2nc3ccncc3[nH]2)cc1	inconclusive: 22.4 µM [inhibitor, single point]
Cc1cccc(NC(=O)CN2C(=O)C(c3ccccc3)=NC23CCC(C)CC3)c1 (stereo unspecified)	inconclusive: 11.2 µM [inhibitor, partial curve, poor fit]
COc1ccc(C(C(=O)NC2CCCCC2)N(C(=O)CCl)c2ccc(OC)cc2)cc1 (stereo unspecified)	inactive
Clc1ccc(OCc2nnc3n2N=C(c2ccc4c(c2)OCCO4)CS3)c(Cl)c1	inconclusive: 16.4 µM [inhibitor, single point]
CC(=O)Nc1ccc(C(=O)N/N=C/c2ccncc2)cc1	inconclusive: 2.82 µM [inhibitor, partial curve, poor fit]
CCOC(=O)c1nnn(CC(=O)N2N=C(c3cccc4ccccc34)CC2c2ccccc2)c1C(=O)OCC (stereo unspecified)	inconclusive: 7.3 µM [inhibitor, single point]
COc1cc(C)c(Cl)cc1S(=O)(=O)NCc1ccccn1	inactive
O=C(Nc1ccc2nsnc2c1)c1ccc2c(c1)OCO2	active: 11.6 µM
CC(=O)N1CCCc2cc(S(=O)(=O)N3CCCC(C(=O)Nc4ccc(C)cc4C)C3)ccc21 (stereo unspecified)	inconclusive: 1.78 µM [inhibitor, partial curve, poor fit]
COc1ccc(C)cc1NC(=O)C(C)N1CCOCC1 (stereo unspecified)	inactive
Nn1c(CSc2nc3ccccc3o2)nnc1CSc1nc2ccccc2o1	inconclusive: 20 µM [inhibitor, single point]
COC(=O)CN1C(=O)C(C)(C)c2cc(S(=O)(=O)Nc3ccc(Br)cc3F)ccc21	inconclusive: 6.31 µM [inhibitor, full curve]
CCN(CC)c1ccc(NC(=O)CN2CCN(c3ccccc3F)CC2)cc1	inconclusive: 35.5 µM [inhibitor, partial curve, poor fit]
Cc1ccc(S(=O)(=O)N2CCN(C(=O)CCOc3ccccc3C)CC2)cc1C	inconclusive: 35.5 µM [inhibitor, single point]
CCn1cc2nc(SCC(=O)Nc3ccc(C)cc3)n(Cc3ccc(C)cc3)c(=O)c2n1	inconclusive: 39.8 µM [inhibitor, partial curve, poor fit]
OCCSc1nc(N2CCOCC2)nc(N2CCOCC2)n1	inconclusive: 35.5 µM [inhibitor, single point]
Cc1cc(C)c(C(=O)c2cccs2)c(C)c1	inconclusive: 15.8 µM [activator, single point]
O=C(NCc1ccccc1F)c1sc2ncccc2c1-n1cccc1	inactive
O=C(NCc1ccccc1)c1cccc(COc2ccccc2Cl)c1	inconclusive: 35.5 µM [inhibitor, single point]
Cc1ccc(-c2ccc(CCC(=O)O)n2NC(=O)c2cccs2)cc1	inactive
N#Cc1cccc(C(=O)OCC(=O)NCc2ccco2)c1	inconclusive: 1.26 µM [activator, partial curve, poor fit]
CCN(CC)S(=O)(=O)c1cccc(NC(=O)CSc2nnc(N)s2)c1	inactive

Compound	Potency
CN(CC(=O)Nc1ccc(F)cc1)C(=O)C1CCN(S(=O)(=O)c2ccc3c(c2)OCCO3)CC1	inactive
CN(C)Cc1c(O)ccc2cc(-c3nc4ccccc4n3C)c(=O)oc12	inconclusive: 2.51 µM [activator, full curve, poor fit]
CCC(C)NC(=O)CSc1nnc(-c2cc(-c3cccs3)nc3ccccc23)o1 (stereo unspecified)	inactive
COc1ccccc1NC(=O)C1=C(C)Nc2nc(SCc3ccccc3)nn2C1c1cccc(O)c1 (stereo unspecified)	inconclusive: 35.5 µM [inhibitor, single point]
COC(=O)c1cc(Br)ccc1OC(=O)c1cccnc1	inconclusive: 7.3 µM [inhibitor, partial curve, poor fit]
COc1ccc(/C=N/n2c(C)nc3ccccc3c2=O)cc1OC	inactive
Cc1ccc(C(=O)N/C(=C\c2ccc(-c3cc(Cl)ccc3Cl)o2)C(=O)NCc2cccnc2)cc1	active: 11.2 µM
COc1cc(CNCCc2ccc(S(N)(=O)=O)cc2)ccc1OCC(=O)N1CCCCC1	inconclusive: 28.2 µM [activator, single point]
O=C(Oc1ccc2ccccc2c1Cl)N1CCCC1	inconclusive: 16.4 µM [inhibitor, partial curve, poor fit]
Cc1ccc2cc3cc(C(=O)N4CCCCCC4)oc3nc2c1	inconclusive: 0.461 µM [activator, full curve]
CCCCC(CCc1ccccn1)C(=O)c1ccccc1 (stereo unspecified)	inconclusive: 1.12 µM [activator, single point]
COc1ccc(NC(=O)c2ccc(NC(=O)N3CCSc4ncccc43)cc2)cc1	inconclusive: 3.16 µM [activator, single point]
O=C(CN(Cc1ccco1)C(=O)CNS(=O)(=O)c1ccccc1)NCc1ccc(F)cc1	inconclusive: 35.5 µM [inhibitor, single point]
CN(CCOc1ccc(Br)cc1)C(=O)CNC(=O)c1ccc2ccccc2c1	inactive
COc1ccccc1CNn1c(-c2cccc(C)c2)nc2ccccc2c1=O	inconclusive: 2.91 µM [inhibitor, partial curve, poor fit]
COc1ccccc1N1CCN(C(=O)c2cc(C)on2)CC1	inactive
CCOc1ccc(N2C(=O)c3cccnc3C2Nc2ccc(OC)cc2)cc1 (stereo unspecified)	inactive
CCOC(=O)c1cccc(NC(=O)Cn2c(=O)c3cccn3c3ccccc32)c1	inconclusive: 22.4 µM [inhibitor, single point]
Cc1sc2c(c1C)C(c1ccc(C(C)(C)C)cc1)=NCC(=O)N2CC(=O)Nc1nccs1	inconclusive: 32.6 µM [inhibitor, single point]
Cc1ccc(C(=O)c2sc(Nc3ccccc3)c(S(=O)(=O)c3ccccc3)c2N)c(C)c1	inconclusive: 1.78 µM [inhibitor, full curve, poor fit]
Cc1c(NS(=O)(=O)c2cccc(C(=O)NCc3ccco3)c2)c(=O)n(-c2ccccc2)n1C	inactive
FC(F)(F)c1cccc(NC(=S)Nc2cccc(NC(=S)Nc3cccc(C(F)(F)F)c3)n2)c1	inconclusive: 35.5 µM [inhibitor, single point]

Compound	Potency
COc1ccc(C(=O)/C=C/C(=O)N(CC(=O)NCCC(C)C)Cc2cccs2)c(O)c1	inconclusive: 23.1 µM [inhibitor, single point]
FC(F)(F)c1ccc(-c2nn3ncccc3c2-c2ccnc(Nc3ccc4c(c3)OCCO4)n2)cc1	inconclusive: 15.8 µM [inhibitor, single point]
COc1ccc(OC)c(-c2cc(C3CCN(c4ncccc4[N+](=O)[O-])CC3)[nH]n2)c1	inconclusive: 15.8 µM [inhibitor, single point]
CCCCNC(=O)C(CC)Sc1nc2ccccc2c(=O)n1Cc1ccco1 (stereo unspecified)	inconclusive: 35.5 µM [inhibitor, single point]
Cc1nc(C(F)(F)F)c(C(=O)N/N=C(\N)c2ccccn2)s1	inconclusive: 31.6 µM [inhibitor, single point]
COc1ccc(N(C)S(=O)(=O)c2cccc(C(=O)Nc3nnc(C4CC4)s3)c2)cc1	inconclusive: 10 µM [inhibitor, partial curve, poor fit]
O=C(COC(=O)c1cccnc1Cl)c1ccc(F)cc1	inconclusive: 5.62 µM [inhibitor, single point]
COc1ccc(C2(c3ccc(OC)cc3)NC(=O)N(CC(=O)Nc3cc(C)ccc3OC)C2=O)cc1	inconclusive: 1.78 µM [inhibitor, full curve, poor fit]
Cc1ccc2c(c1)nnn2C1CCN(S(=O)(=O)c2ccc(C(=O)N(C)C)cc2)CC1	inactive
O=C(COc1ccc(F)cc1)Nc1nnc(S(=O)(=O)N2CCCC2)s1	inactive
O=C(Cn1ncc(Cl)c(Cl)c1=O)N1CCc2ccccc21	inconclusive: 35.5 µM [inhibitor, single point]
COc1ccccc1CNC(=O)c1ccc2[nH]c(C)c(C)c2c1	inconclusive: 6.31 µM [inhibitor, partial curve, poor fit]
CCN(CC)S(=O)(=O)c1ccc2[nH]c(=O)cc(C(=O)Nc3ccc(C)cc3)c2c1	inconclusive: 5.62 µM [inhibitor, full curve, poor fit]
COCCNC(=O)c1c[nH]c2ccc(S(=O)(=O)N(C)c3ccc(C)c(C)c3)cc2c1=O	inactive
O=C(Nc1ccc2nccnc2c1)c1ccco1	inactive
COc1cc(C(=O)N2CCN(c3ccc(C)cc3C)CC2)cc(OC)c1OC	inconclusive: 7.31 µM [inhibitor, partial curve]
CC1CCC(NC(=O)c2ccc(CS(=O)(=O)c3ccc(Cl)cc3)o2)CC1 (stereo unspecified)	inconclusive: 14.1 µM [inhibitor, single point]
COc1cc(/C=N/NC(=O)c2ccc(O)cc2)ccc1OCC(=O)N1CC(C)OC(C)C1 (stereo unspecified)	inactive
CCCCOc1ccc(C(=O)N2CCCCC2CCN2CCOCC2)cc1 (stereo unspecified)	inconclusive: 6.31 µM [inhibitor, partial curve, poor fit]
COc1cc(C(=O)NC(C)CCc2ccccc2)cc(OC)c1OC (stereo unspecified)	inconclusive: 0.794 µM [activator, single point]
CCc1nc2ccccc2nc1N1CCN(S(=O)(=O)c2ccc(Cl)cc2)CC1	inconclusive: 35.5 µM [inhibitor, single point]
CC(=O)c1ccc(NC(=O)c2sc3nc(C)c(C)c(C)c3c2N)cc1	inconclusive: 1.26 µM [activator, partial curve, poor fit]

Laid out differently: results already given.
Compound | Potency
COc1ccc(C(=O)/C=C/C(=O)N(CC(=O)NCCC(C)C)Cc2cccs2)c(O)c1 | inconclusive: 23.1 µM [inhibitor, single point]
O=C(COC(=O)c1cccnc1Cl)c1ccc(F)cc1 | inconclusive: 5.62 µM [inhibitor, single point]
COc1ccccc1CNC(=O)c1ccc2[nH]c(C)c(C)c2c1 | inconclusive: 6.31 µM [inhibitor, partial curve, poor fit]
COc1cc(C(=O)N2CCN(c3ccc(C)cc3C)CC2)cc(OC)c1OC | inconclusive: 7.31 µM [inhibitor, partial curve]
CC1CCC(NC(=O)c2ccc(CS(=O)(=O)c3ccc(Cl)cc3)o2)CC1 (stereo unspecified) | inconclusive: 14.1 µM [inhibitor, single point]
CC(=O)c1ccc(NC(=O)c2sc3nc(C)c(C)c(C)c3c2N)cc1 | inconclusive: 1.26 µM [activator, partial curve, poor fit]
